{"sequences": {"note": "Chains of the proteins cited; added tags and fusions are not shown.", "UniProt Q14145": "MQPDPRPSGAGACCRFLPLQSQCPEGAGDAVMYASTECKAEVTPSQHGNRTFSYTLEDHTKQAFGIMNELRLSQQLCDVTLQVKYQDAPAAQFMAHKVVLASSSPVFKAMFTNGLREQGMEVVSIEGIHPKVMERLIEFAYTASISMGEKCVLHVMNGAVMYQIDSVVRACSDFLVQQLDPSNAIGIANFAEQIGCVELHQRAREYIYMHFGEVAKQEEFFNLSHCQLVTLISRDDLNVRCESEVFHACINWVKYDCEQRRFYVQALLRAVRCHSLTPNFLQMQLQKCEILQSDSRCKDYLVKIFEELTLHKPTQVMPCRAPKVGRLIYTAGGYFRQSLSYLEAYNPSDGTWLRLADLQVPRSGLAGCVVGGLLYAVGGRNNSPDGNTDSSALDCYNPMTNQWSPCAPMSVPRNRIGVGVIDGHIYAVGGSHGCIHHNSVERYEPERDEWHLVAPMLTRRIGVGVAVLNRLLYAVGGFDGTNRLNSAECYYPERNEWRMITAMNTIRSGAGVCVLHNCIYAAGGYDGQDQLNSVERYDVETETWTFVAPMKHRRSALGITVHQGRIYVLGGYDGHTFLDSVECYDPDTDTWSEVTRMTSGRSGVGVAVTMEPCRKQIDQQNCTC"}, "source": "paper PMC10564622", "molecular_target": "KEAP1FL (full-length, untagged KEAP1, residues 1–624), unlabeled (human) (UniProt Q14145)", "assay": "FRET or BRET; KEAP1FL dimerization TR-FRET assay with a mixture of CoraFluor-1- and FITC-labeled Nrf2-derived peptides (…-CONH2); KLHL11_(BTB-BACK) titrated up to 25 μM; both purified", "note": "These are yes or no findings as the source states them, for the method shown."}
{"binder": "KLHL11_(BTB-BACK) (human KLHL11 residues 67–340) (domain or fragment, UniProt Q9NVR0 67-340) EAEDFECSSHCSELSWRQNEQRRQGLFCDITLCFGGAGGREFRAHRSVLAAATEYFTPLLSGQFSESRSGRVEMRKWSSEPGPEPDTVEAVIEYMYTGRIRVSTGSVHEVLELADRFLLIRLKEFCGEFLKKKLHLSNCVAIHSLAHMYTLSQLALKAADMIRRNFHKVIQDEEFYTLPFHLIRDWLSDLEITVDSEEVLFETVLKWVQRNAEERERYFEELFKLLRLSQMKPTYLTRHVKPERLVANNEVCVKLVADAVERHALRAENIQSGT", "values": [{"measurement": "binding", "value": "no binding (tested: 25 μM)"}]}
